Among the data in PMC11994786 are binding values, retold here.

Sequences of proteins named here, by UniProt entry; tags and fusion partners are left off. A change or cut given only in a name is not applied to a line headed by its entry.
UniProt P55264: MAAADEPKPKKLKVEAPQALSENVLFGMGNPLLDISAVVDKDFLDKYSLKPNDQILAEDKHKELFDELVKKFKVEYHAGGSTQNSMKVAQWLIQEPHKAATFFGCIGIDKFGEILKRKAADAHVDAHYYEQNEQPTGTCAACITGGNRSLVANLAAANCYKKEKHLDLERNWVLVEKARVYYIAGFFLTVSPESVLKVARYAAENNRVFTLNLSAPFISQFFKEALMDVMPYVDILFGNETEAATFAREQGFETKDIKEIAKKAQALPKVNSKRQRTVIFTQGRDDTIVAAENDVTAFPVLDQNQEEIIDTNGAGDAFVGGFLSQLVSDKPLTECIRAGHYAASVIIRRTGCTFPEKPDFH
UniProt P20065: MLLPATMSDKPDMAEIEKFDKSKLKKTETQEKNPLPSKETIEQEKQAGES
UniProt Q8BGQ7: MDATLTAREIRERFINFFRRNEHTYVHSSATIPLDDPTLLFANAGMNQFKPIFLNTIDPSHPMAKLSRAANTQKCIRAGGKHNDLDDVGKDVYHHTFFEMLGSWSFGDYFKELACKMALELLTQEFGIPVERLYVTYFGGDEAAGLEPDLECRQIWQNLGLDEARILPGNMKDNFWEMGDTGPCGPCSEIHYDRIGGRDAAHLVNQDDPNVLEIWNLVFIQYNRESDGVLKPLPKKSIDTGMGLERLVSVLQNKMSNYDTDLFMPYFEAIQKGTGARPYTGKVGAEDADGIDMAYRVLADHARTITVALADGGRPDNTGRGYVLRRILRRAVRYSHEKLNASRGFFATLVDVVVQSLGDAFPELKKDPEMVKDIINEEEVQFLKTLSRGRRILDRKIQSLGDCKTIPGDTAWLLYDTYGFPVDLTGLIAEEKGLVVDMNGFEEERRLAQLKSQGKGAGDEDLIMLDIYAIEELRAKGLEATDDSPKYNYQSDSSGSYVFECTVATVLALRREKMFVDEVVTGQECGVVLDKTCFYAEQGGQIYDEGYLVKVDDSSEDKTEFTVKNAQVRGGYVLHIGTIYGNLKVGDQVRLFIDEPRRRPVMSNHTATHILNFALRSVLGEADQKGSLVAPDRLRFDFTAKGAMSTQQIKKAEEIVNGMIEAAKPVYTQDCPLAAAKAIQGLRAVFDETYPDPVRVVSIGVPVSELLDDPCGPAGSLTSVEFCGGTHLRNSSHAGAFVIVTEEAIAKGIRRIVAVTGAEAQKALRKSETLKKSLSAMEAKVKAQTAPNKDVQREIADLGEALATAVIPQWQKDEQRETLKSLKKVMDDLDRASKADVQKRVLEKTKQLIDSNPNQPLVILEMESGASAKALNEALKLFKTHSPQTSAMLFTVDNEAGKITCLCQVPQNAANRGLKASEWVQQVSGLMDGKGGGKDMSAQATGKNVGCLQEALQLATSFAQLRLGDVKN
UniProt Q9JLJ2: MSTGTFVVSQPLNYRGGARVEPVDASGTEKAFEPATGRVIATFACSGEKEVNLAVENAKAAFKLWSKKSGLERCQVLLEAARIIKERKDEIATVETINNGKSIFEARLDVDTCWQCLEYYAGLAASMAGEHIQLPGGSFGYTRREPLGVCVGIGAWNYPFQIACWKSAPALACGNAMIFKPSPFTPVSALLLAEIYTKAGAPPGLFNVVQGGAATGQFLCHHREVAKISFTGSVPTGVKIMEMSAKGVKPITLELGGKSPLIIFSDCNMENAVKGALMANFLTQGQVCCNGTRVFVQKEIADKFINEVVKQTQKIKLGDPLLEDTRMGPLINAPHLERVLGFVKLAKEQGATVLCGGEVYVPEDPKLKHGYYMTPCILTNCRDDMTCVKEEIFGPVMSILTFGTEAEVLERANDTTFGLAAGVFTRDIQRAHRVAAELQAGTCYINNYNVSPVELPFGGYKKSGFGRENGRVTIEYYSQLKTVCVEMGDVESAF
UniProt P08074: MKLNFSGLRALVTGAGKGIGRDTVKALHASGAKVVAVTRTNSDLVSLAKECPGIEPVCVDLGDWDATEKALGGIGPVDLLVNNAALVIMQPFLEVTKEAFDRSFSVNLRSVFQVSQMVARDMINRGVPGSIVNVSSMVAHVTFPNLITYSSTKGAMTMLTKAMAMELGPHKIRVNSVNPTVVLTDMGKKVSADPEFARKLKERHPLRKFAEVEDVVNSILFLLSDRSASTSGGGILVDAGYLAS
UniProt Q6VN19: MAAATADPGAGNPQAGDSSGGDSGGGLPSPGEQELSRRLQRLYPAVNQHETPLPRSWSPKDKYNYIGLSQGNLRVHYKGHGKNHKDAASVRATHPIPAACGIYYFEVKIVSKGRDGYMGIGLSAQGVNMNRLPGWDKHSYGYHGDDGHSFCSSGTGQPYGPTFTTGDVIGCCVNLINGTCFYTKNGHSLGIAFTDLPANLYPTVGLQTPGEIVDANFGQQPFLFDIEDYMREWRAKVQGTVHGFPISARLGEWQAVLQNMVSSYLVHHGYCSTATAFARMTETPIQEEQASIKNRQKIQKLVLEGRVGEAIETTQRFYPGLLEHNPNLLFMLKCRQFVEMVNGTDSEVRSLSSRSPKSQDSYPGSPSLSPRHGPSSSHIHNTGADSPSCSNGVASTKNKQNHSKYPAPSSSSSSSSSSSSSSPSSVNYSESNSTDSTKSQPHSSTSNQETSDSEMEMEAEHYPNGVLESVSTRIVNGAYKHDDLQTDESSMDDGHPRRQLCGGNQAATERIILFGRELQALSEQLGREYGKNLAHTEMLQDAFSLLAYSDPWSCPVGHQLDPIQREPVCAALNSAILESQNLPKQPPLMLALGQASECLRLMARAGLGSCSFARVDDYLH
UniProt Q6ZQK0: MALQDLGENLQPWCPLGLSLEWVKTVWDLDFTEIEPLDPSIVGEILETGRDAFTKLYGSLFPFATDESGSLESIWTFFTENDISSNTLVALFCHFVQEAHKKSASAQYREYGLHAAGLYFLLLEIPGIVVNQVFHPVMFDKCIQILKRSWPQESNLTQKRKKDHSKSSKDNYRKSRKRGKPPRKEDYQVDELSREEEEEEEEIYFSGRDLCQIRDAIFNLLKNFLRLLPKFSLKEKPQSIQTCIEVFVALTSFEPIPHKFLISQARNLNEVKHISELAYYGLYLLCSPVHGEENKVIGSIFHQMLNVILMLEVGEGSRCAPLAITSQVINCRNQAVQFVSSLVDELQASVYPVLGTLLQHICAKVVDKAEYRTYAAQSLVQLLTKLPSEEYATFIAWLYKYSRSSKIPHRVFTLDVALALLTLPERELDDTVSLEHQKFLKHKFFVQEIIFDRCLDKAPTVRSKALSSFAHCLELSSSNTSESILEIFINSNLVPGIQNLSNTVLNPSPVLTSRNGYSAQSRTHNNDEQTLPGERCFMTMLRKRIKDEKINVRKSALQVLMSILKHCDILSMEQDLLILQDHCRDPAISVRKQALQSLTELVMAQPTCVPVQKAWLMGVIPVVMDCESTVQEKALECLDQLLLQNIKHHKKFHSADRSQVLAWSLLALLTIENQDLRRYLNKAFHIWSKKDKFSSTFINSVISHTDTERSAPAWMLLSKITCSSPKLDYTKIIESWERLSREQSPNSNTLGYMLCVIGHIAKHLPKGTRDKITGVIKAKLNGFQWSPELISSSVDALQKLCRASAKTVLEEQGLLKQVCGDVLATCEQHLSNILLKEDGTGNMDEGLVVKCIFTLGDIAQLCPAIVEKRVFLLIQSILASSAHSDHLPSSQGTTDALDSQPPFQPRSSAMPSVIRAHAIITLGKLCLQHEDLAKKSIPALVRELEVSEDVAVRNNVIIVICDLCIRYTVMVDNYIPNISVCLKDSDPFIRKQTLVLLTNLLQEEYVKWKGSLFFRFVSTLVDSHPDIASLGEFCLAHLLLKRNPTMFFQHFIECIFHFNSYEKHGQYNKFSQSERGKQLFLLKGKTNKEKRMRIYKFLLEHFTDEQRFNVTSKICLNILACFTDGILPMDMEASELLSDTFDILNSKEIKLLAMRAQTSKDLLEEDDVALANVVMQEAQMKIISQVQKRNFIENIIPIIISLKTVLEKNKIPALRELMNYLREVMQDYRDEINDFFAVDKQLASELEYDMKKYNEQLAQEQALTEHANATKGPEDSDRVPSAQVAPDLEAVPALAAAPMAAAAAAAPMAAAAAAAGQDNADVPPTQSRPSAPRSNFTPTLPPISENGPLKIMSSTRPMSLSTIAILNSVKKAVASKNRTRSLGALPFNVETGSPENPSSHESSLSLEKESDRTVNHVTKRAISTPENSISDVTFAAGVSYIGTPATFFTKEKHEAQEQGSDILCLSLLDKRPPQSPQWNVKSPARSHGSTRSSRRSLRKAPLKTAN
UniProt P40645: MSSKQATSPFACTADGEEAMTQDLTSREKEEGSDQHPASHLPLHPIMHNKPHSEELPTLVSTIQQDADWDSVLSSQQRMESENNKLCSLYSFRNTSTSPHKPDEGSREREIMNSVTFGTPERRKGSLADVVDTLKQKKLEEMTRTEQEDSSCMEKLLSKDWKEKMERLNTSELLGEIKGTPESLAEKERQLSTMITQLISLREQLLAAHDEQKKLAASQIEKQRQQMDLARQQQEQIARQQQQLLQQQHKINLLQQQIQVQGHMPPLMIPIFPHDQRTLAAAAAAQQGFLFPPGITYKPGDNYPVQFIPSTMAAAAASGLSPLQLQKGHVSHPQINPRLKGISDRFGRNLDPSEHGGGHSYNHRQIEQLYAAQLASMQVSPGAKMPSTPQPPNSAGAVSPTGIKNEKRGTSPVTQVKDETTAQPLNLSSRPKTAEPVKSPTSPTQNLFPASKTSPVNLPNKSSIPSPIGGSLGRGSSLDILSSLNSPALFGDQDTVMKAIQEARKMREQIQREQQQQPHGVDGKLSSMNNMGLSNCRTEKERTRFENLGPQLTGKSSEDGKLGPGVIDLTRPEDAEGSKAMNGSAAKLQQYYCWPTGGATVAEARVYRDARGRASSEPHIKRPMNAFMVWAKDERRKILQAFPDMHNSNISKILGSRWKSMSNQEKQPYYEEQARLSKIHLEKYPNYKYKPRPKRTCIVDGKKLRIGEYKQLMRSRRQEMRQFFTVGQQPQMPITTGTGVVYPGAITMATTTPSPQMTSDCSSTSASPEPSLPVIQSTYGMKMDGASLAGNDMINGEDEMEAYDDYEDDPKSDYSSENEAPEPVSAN
UniProt Q91VR2: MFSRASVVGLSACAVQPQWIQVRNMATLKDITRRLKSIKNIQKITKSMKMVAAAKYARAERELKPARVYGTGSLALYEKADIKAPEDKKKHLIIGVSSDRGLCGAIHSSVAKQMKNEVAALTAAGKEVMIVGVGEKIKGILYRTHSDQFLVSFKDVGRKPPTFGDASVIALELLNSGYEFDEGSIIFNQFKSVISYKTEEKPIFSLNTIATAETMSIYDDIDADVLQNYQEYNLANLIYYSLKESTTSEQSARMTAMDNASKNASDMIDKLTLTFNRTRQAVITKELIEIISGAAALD
UniProt P37238: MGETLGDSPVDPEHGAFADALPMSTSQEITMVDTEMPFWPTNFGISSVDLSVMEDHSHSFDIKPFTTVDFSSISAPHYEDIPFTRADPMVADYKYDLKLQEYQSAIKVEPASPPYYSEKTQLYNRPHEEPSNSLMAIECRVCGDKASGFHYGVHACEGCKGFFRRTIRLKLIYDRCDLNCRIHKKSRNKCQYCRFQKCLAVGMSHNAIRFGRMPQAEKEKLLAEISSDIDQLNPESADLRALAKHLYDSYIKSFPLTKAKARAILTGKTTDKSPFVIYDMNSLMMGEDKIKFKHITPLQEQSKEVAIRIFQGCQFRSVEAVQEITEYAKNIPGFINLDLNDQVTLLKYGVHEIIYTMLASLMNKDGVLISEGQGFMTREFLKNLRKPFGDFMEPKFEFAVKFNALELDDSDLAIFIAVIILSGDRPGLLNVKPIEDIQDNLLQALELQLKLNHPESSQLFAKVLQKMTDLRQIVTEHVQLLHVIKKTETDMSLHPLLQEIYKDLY
UniProt Q64267: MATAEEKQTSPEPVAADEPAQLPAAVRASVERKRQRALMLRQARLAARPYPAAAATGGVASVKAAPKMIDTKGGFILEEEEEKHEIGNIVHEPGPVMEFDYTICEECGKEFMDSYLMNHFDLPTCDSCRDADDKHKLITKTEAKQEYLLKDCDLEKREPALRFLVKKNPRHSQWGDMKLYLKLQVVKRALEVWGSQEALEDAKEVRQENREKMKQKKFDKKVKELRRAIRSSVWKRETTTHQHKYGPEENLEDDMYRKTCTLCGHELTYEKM
UniProt A2AVJ5: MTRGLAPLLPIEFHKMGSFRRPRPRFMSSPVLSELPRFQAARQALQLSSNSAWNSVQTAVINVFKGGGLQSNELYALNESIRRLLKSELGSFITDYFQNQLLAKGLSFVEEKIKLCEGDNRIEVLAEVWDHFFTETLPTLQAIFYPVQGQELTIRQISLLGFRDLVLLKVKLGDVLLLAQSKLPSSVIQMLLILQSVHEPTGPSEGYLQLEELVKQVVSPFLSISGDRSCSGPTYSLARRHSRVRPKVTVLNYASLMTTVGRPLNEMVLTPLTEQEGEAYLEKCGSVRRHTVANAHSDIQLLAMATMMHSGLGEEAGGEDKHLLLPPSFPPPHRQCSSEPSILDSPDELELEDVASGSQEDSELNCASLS

Results are given in words; binding and its absence hold for the method and conditions named. In cells and extracts the contact can be indirect. Here binding means that the protein was enriched with, or labelled near, the bait; the list need not be complete.

In one assay the target is RanBP9-V5 (Ran Binding Protein 9 with a V5 tag at the C-terminus) (mouse) (UniProt P69566). In words: affinity purification with mass spectrometry; anti-V5 magnetic beads on 1 mg pre-cleared whole lung lysate of LysMBP9X mice, overnight at 4 °C, on-bead trypsin digestion, LC-MS/MS; hits significant (p ≤ 0.05) against V5-IP from WT mice and Ig-IPs.
Take Itpr2 (from UniProt Q9Z329 1-2701): the binding result is “binds”.

For “Adk (Adenosine Kinase) (from UniProt P55264 1-361)”, the binding result was “binds”.

As for “Akr1b1 (Aldo-Keto Reductase Family 1 Member B) (from UniProt P45376 1-316)”, the binding entry was “binds”.

Consider “Armc8 (Armadillo repeat containing 8) (from UniProt Q9DBR3 1-673)”, for which the binding entry was “binds”.

As for “Nme2 (Nme/Nme23 Nucleoside Diphosphate Kinase 2) (from UniProt Q01768 1-152)”, the binding entry is “binds”.

For the substance Tmsb4x (from UniProt P20065 1-50), the binding entry is on record as “binds”.

As to Irgm2 (from UniProt A0A140LIF8 1-395), the binding entry was “binds”.

Take “Aars1 (Alanyl-tRNA Synthetase 1) (from UniProt Q8BGQ7 1-968)”: the binding result is given as “binds”.

As to “Hk1 (Hexokinase 1) (from UniProt P17710-3)”, the binding result is “binds”.

For the substance Spr (from UniProt Q64105 1-261), the binding entry is listed as “binds”.

As to “Aldh9a1 (Aldehyde Dehydrogenase 9 Family Member A1) (from UniProt Q9JLJ2 1-494)”, the binding result is “binds”.

On to “Wdr26 (WD repeat domain 26), isoform of 625 amino acids (from UniProt E0CYH4)”, for which the binding result is listed as “binds”.

As for “Anxa5 (Annexin A5) (from UniProt P48036 1-319)”, the binding result was “binds”.

Consider Cbr2 (from UniProt P08074 1-244), for which the binding entry was “binds”.

For Ndufs6 (from UniProt P52503 21-116), the binding result was “binds”.

Regarding “Prkdc (Protein Kinase, DNA-activated, Catalytic Subunit) (from UniProt P97313 1-4128)”, the binding result is “binds”.

As to “RanBP10 (Ran Binding Protein 10) (from UniProt Q6VN19 1-620)”, the binding result is recorded as “binds”.

In the case of Acadsb (from UniProt Q9DBL1 34-432), the binding entry is “binds”.

“B2m (Beta-2 microglobulin) (from UniProt P01887 21-119)”: the binding entry is “binds”.

Take “Wdr26 (WD repeat domain 26), isoform of 725 amino acids (from UniProt Q8C6G8)”: the binding result was “binds”.

In the case of “Lrrfip2 (Leucine-Rich Repeat Flightless Interacting Protein 2) (from UniProt Q91WK0 1-415)”, the binding result is reported as “binds”.

A further assay addresses RanBP9-3xHA (Ran Binding Protein 9 fused to three copies of the HA tag) (mouse) (UniProt P69566). Briefly: affinity purification with mass spectrometry; anti-HA magnetic beads on 1 mg pre-cleared whole lung lysate of LysMBP9X mice, overnight at 4 °C, on-bead trypsin digestion, LC-MS/MS; hits significant (p ≤ 0.05) against HA-IP from WT mice and Ig-IPs.
For “Ncapd3 (Non-SMC condensing II complex subunit d3) (from UniProt Q6ZQK0 1-1506)”, the binding result is “binds”.

In the case of “High temperature requirement protein 2 (HtrA2) (from UniProt Q9JIY5)”, the binding entry is “binds”.

“Armc8 (Armadillo repeat containing 8) (from UniProt Q9DBR3 1-673)”: the binding result is on record as “binds”.

For “Magohb (MAGO homolog b) (from UniProt Q9CQL1 1-146)”, the binding entry was “binds”.

Take “Cdk14 (Cyclin-dependent kinase 14) (from UniProt O35495 1-469)”: the binding result is given as “binds”.

Ndufs2 (from UniProt Q91WD5 34-463): the binding result was “binds”.

Regarding “Sox6 (SRY-related HMG-box 2) (from UniProt P40645 1-827)”, the binding result is on record as “binds”.

As to “Tho2 (member of the THO complex) (from UniProt B1AZI6 1-1594)”, the binding result is reported as “binds”.

On to “Taf4 (TATA-box binding associated factor 4) (from UniProt A0A2I3BPN6 1-1030)”, for which the binding result is listed as “binds”.

For Atp5c1 (from UniProt Q91VR2), the binding result is reported as “binds”.

For the substance “Pparg (Peroxisome Proliferator Activated Receptor Gamma) (from UniProt P37238 1-505)”, the binding entry is recorded as “binds”.

Turning to Tspo (from UniProt P50637 1-169), the binding result is listed as “binds”.

For “Rpa1 (Replication Protein A1) (from UniProt Q8VEE4 1-623)”, the binding result was “binds”.

In the case of Polr1e (from UniProt Q8K202 1-482), the binding result is given as “binds”.

As for “Ints5 (Integrator complex subunit 5) (from UniProt Q8CHT3 1-1018)”, the binding result was “binds”.

As for “Aspm (Assembly factor for spindle microtubules 3) (from UniProt Q8CJ27 1-3122)”, the binding entry is reported as “binds”.

In the case of “Wdr26 (WD repeat domain 26), isoform of 625 amino acids (from UniProt E0CYH4)”, the binding result is recorded as “binds”.

As to “Prpf19 (Pre-mRNA processing factor 19) (from UniProt Q99KP6 1-504)”, the binding entry is recorded as “binds”.

With “Xpa (Xeroderma pigmentosum group a-complementing protein) (from UniProt Q64267 1-272)”, the binding result is on record as “binds”.

Turning to “RanBP10 (Ran Binding Protein 10) (from UniProt Q6VN19 1-620)”, the binding entry is “binds”.

As for “Taf5l (TATA-box binding associated factor 5 like) (from UniProt Q91WQ5 1-589)”, the binding result is given as “binds”.

As to “Prr5l (Proline Rich 5 Like) (from UniProt A2AVJ5 1-370)”, the binding result is reported as “binds”.

For “Rictor (RPTOR independent companion of MTOR complex 2) (from UniProt Q6QI06 1-1708)”, the binding result was “binds”.

With “Wdr26 (WD repeat domain 26), isoform of 725 amino acids (from UniProt Q8C6G8)”, the binding entry is “binds”.

Take Snrp200 (from UniProt Q6P4T2 1-2136): the binding entry is reported as “binds”.

Consider Snrpe (from UniProt P62305 1-92), for which the binding result is recorded as “binds”.

In the case of “Eif4a3 (Eukaryotic Translation Initiation Factor 4a3) (from UniProt Q91VC3 1-411)”, the binding entry is reported as “binds”.
